Assay results published in patent US20040096356A1, “Assay device for determining analytes in a liquid dairy product” (priority 1997, published 2004).
Some results were stated once for a whole list of compounds, not compound by compound.

By UniProt entry, the sequences of proteins in these tests, tags left out. Residues count along the entry.
UniProt P12287, 340-601: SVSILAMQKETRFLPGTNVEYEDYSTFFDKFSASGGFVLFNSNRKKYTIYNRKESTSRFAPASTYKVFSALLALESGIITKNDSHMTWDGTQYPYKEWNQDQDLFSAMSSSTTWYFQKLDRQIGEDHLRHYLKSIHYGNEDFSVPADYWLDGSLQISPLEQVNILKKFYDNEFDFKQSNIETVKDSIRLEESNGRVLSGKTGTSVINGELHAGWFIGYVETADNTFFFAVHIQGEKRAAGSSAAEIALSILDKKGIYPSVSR

Target: T1, receptor BlaR-CTD (Bacillus licheniformis, UniProt P12287)
T1 construct: the receptor BlaR-CTD is the carboxy-terminal region of BlaR
Assay: 3-minute rapid test: strip test for β-lactam antibiotics in milk using BlaR-CTD
Type: binding
Settings: in 3 minutes; positive when first band is less intense than second band
Source text: According to a preferred embodiment of the invention an identifier is used which comprises a receptor sensitive to antibiotics having a β-lactam ring, which receptor is obtained from Bacillus licheniformis, such as the receptor BlaR or the receptor BlaR-CTD. The isolation and the peptide sequence of the protein BlaR are described in Y. Zhu et al., J. Bacteriol., 1137-1141 (1990); the receptor BlaR-CTD is the carboxy-terminal region of BlaR, whose isolation and peptide sequence are described in B. Joris et al., FEMS Microbiology Letters, 107-114 (1990).
This example illustrates the detection in milk of antibiotics having a β-lactam ring which are monitored by the health authorities. […]
The first capture substance makes it possible to fix the BlaR-CTD coupled with the gold beads present in excess relative to the quantity of antibiotic present in the sample. […]
7 samples of fresh milk are prepared, containing 0; 1; 2; 3; 4; 5 and 6 ppb, respectively, of penicillin G. Each of these solutions is then analysed as follows. […]
An intensity value ranging from 0 to 10 is awarded to the bands detected, the value 10 being given to the most intense band and the value 0 being given to the least intense band. […]

| Compound | lowest concentration detected in a milk sample |
| --- | --- |
| Cc1onc(-c2c(Cl)cccc2Cl)c1C(=O)N[C@@H]1C(=O)N2[C@@H]1SC(C)(C)[C@@H]2C(=O)O [dicloxacillin] | less than 20 ppb |
| Cc1onc(-c2ccccc2)c1C(=O)N[C@@H]1C(=O)N2[C@@H]1SC(C)(C)[C@@H]2C(=O)O [oxacillin] | less than 20 ppb |
